Each structure is given as a SMILES string. The campaign covered roughly 1,400 compounds. About 50 (4%) were called active.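 How the source made its calls: active means fitted curve reaches 30% CPE protection at or below the top valid dose, with every test run called active; inconclusive means test runs disagree, some active and some not; inactive means every test run inactive, including effects in the wrong direction.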 Some of the results follow. Results with a measured potency or affinity are listed apart.

The assay can be described thus: antiviral rescue of DENV2-infected BHK-21 cells – cell-based, ATP luminescence, cherry-pick, dose response (AID 687031).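 Further: 0% = infected DMSO wells and 100% = uninfected cell wells.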 The settings on record: BHK-21 DENV2 CPE protection, 5 d; at 19.5 µM (top of the series) unless noted.
As to `Cc1nc2ccccc2c(=O)n1-c1nccs1`, the CPE protection (higher = active) is inactive: -3.46%.

Take `O=C(CN1CC(c2ccccc2)CC1=O)Nc1ccccc1` (stereo not given): the CPE protection (higher = active) is inactive: 26.9%.

Consider `COC(=O)C1C(c2ccc(C)cc2)CC2CCC1N2C` (stereo not given), for which the CPE protection (higher = active) was inactive: -12.5%.

As for `CCOC(=O)c1cccc(C2=C(CNC(C)=O)[C@H]3CC[C@@H](C2)N3Cc2ccccc2)c1`, the CPE protection (higher = active) is inactive: 7.88%.

For the compound `O=S(=O)(NC1CCCCCCC1)OCC(Cl)(Cl)Cl`, the CPE protection (higher = active) is inactive: -21.7%.

For `COc1ccc(CC(=O)N(CCN(C)C)CC2CCCN(Cc3ccccc3F)C2)cc1` (stereo not given), the CPE protection (higher = active) was inactive: 9.89%.

On to `c1cc2c(cc1C1OCC3C(c4ccc5c(c4)OCO5)OCC13)OCO2` (stereo not given), for which the CPE protection (higher = active) was inactive: -18.9%.

With `CN(C(=O)Oc1cccc2ccccc12)C1C=CCC1` (stereo not given), the CPE protection (higher = active) was inactive: -4.29%.

For the compound `NP(=O)(OCCCc1ccccc1)Oc1ccc(Cl)cc1` (stereo not given), the CPE protection (higher = active) was inactive: 13.9%.

Consider `COC(=O)[C@H]1N[C@H]2c3ccc(C4=CCCC4)c(=O)n3C[C@H]2[C@@H]1CO`, for which the CPE protection (higher = active) was inactive: 21.3% [at 21 µM].

Consider `Cc1c(CCC(=O)N2C[C@H]3C[C@@H](C2)c2cccc(=O)n2C3)c(=O)oc2c(C)c(O)ccc12`, for which the CPE protection (higher = active) was inactive: 2.65%.

On to `O=C(Nc1ccc(C(F)(F)F)cc1)OC1CN2CCC1CC2` (stereo not given), for which the CPE protection (higher = active) was inactive: -8.6%.

Take `CCCCN1C(=N)C(CC)(CC)C(=O)NC1=O`: the CPE protection (higher = active) was inactive: -0.341%.

`O=S(=O)(NC1CCCC1)OCC(Cl)(Cl)Cl`: the CPE protection (higher = active) is inactive: -14%.

On to `C/C=C/c1ccc([C@@H]2[C@H]3CN(C(=O)Cc4ccncc4)CCCCN3[C@H]2CO)cc1`, for which the CPE protection (higher = active) was inactive: -8.54%.

Consider `CCN1CCC(NCC2CCCCC2)CC1`, for which the CPE protection (higher = active) is inactive: 1.94%.

As to `O=S(=O)(c1cc(Cl)cc(Cl)c1)N1Cc2cc(N3CCOCC3)ccc2-n2nncc2C1`, the CPE protection (higher = active) was inactive: -14.3%.

With `COc1ccc(SCC2CN(C)CCC2c2ccc(F)cc2)cc1` (stereo not given), the CPE protection (higher = active) was inactive: 26.4%.

With `O=C(CCC(=O)N1C[C@H]2C[C@@H](C1)c1cccc(=O)n1C2)NCc1ccc(F)cc1`, the CPE protection (higher = active) was inactive: 15%.

For the compound `C[C@H]1CN([C@@H](C)CO)C(=O)c2c(c3ccccc3n2C)-c2ccccc2CO[C@H]1CN(C)C(=O)Oc1ccccc1`, the CPE protection (higher = active) was inactive: -5.91% [at 21 µM].

Consider `COc1ccc(CCNCc2cccn2C)cc1OC`, for which the CPE protection (higher = active) was inactive: -1.42%.

Take `C=CCCC1(C2=CCCCC2)C(=O)NC(=O)NC1=O`: the CPE protection (higher = active) is inactive: 20.7%.

`Cc1[nH]c2ccc(O)cc2c1CCN`: the CPE protection (higher = active) is inactive: -10.5%.

For `C/C=C/c1ccc([C@H]2[C@@H](CO)N3CCCCN(C(=O)Cc4ccncc4)C[C@@H]23)cc1`, the CPE protection (higher = active) was inactive: 29.2%.

For the compound `CCOC(=O)c1cc2cc(OC)ccc2n1C1CCN(Cc2ccccc2)CC1`, the CPE protection (higher = active) was inactive: -4.92%.

Turning to `O=C(NCCN1CCC2(CC1)C(=O)NCN2c1ccccc1)c1ccccc1F`, the CPE protection (higher = active) was inactive: -0.359%.

Turning to `O=c1[nH]c(=O)n(Cc2ccc(F)cc2)c(O)c1/C=N/Nc1ccccc1`, the CPE protection (higher = active) was inactive: -13.6%.

As to `Nc1ccc(CC2=NCCN2)cc1`, the CPE protection (higher = active) is inactive: 3.2%.

For `C/C=C/c1ccc2c(c1)OCO2`, the CPE protection (higher = active) is inactive: 16.8%.

Consider `CCC(c1ccc(C)cc1)N1C(=O)C2C3CCC(O3)C2C1=O` (stereo not given), for which the CPE protection (higher = active) was inactive: 16.1%.

As for `O=C(CCC(=O)N1C[C@H]2C[C@@H](C1)c1cccc(=O)n1C2)NCc1ccccc1C(F)(F)F`, the CPE protection (higher = active) is inactive: 21%.

With `CN(C)CC1CSCCC1(O)c1ccc(C(F)(F)F)cc1` (stereo not given), the CPE protection (higher = active) is inactive: 17.4%.

For the compound `COC(=O)[C@@H]1[C@@H](CO)[C@@H]2Cn3c(ccc(-c4ccncc4)c3=O)[C@H]1N2CCc1ccccc1`, the CPE protection (higher = active) is inactive: 0.193%.

With `Cc1cc(=O)oc2cc(OCC(=O)N3CCC(C(=O)O)(c4ccccc4)CC3)ccc12`, the CPE protection (higher = active) was inactive: -3.59%.

On to `CN1C2CCC1CC(OC(=O)c1cccc(O)c1)C2` (stereo not given), for which the CPE protection (higher = active) is inactive: 12.1%.

On to `N#Cc1ccc(CN2Cc3ccccc3-n3nncc3C2)cc1`, for which the CPE protection (higher = active) is inactive: -8.89%.

Consider `CCC(C)c1cnc(CC(C)C)c(=O)n1O` (stereo not given), for which the CPE protection (higher = active) was inactive: 9.27%.

On to `Clc1ccc([C@H]2CC3CCC2N3)cn1` (stereo not given in full), for which the CPE protection (higher = active) was inactive: -11.9%.

For `COc1ccc(CC(=O)N2C[C@H]3C[C@@H](C2)c2cccc(=O)n2C3)cc1`, the CPE protection (higher = active) is inactive: -2.6%.

`Fc1ccccc1CNCCc1c[nH]c2ccccc12`: the CPE protection (higher = active) was inactive: -11.2%.

These data come from PubChem BioAssay AID687031 (Broad Institute, 2013).
